PubChem BioAssay AID1224830, NIAID – 2016
Test: 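Host factors that control LPS-induced TNF expression in human macrophages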 (primary screen). Cells: human THP-1 monocytic leukaemia cells, TNF dual-luciferase reporter clone, PMA-differentiated to macrophage-like cells. Knock-down reagent: siRNA pool against human genes, 50 nM. Timing: LPS for 4 h, given about 3 days after siRNA transfection. Conditions: bacterial LPS (TLR4 ligand), 10 ng/ml. Measurement: 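Ratio of firefly to renilla light, scaled to the plate median and expressed as a robust z-score per replicate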. Reading the numbers: TNF reporter robust z-score: higher = stronger TNF reporter response to LPS. Hit rule: 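a well is active when its z-score exceeds 2.8 or falls below -1.5; control wells carry no call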.
Shown is one part, drawn at random, of about 18,000 deposited reagents. Over the whole deposit, about 2,900 (16%) are marked active. 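Calls are made per well; low scores hint the gene aids the LPS response, high scores that it dampens it.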 A number with no mark means an inactive call. Repeated entries: four replicate wells of each siRNA pool. Reagent sequences are not shown.

BTBD6
- TNF reporter robust z-score: 0.38

BTBD6
- TNF reporter robust z-score: -0.94

BTBD6
- TNF reporter robust z-score: 0.01

BTBD6
- TNF reporter robust z-score: -1.33

PLXNC1
- TNF reporter robust z-score: 2.63

PLXNC1
- TNF reporter robust z-score: 2.99 (active)

PLXNC1
- TNF reporter robust z-score: 0.79

PLXNC1
- TNF reporter robust z-score: 1.75

Continued; the last 2 above are carried over.
PLXNC1
- TNF reporter robust z-score: 0.79

PLXNC1
- TNF reporter robust z-score: 1.75

RASA3
- TNF reporter robust z-score: -1.28

RASA3
- TNF reporter robust z-score: -0.8

RASA3
- TNF reporter robust z-score: -0.85

RASA3
- TNF reporter robust z-score: -1.1

SERPINE2
- TNF reporter robust z-score: 0.37

SERPINE2
- TNF reporter robust z-score: 1.9

SERPINE2
- TNF reporter robust z-score: 0.61

SERPINE2
- TNF reporter robust z-score: 0.75

NREP
- TNF reporter robust z-score: -0.81

NREP
- TNF reporter robust z-score: 0.37

NREP
- TNF reporter robust z-score: -1.32

NREP
- TNF reporter robust z-score: -0.01
